Data source: PubChem BioAssay AID1259308 (NCATS, 2017)
Assay: 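Candidate targets for better recombinant protein yield in mammalian cells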 (primary screen). System: human HEK293 embryonic kidney cells stably expressing firefly luciferase (HEK-CMV-Luc2-Hygro). Reagents: single siRNA against human genes, 0.8 pmol siRNA per well. Time to read-out: 72 h. Detection: 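Luciferase light (ONE-Glo) measured on one replicate plate set and viability (CellTiter-Glo) on the other, scaled to a negative control siRNA, with robust z-scores and luciferase per cell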. Scale: total luciferase, z-score and total luciferase, % of control: higher = more reporter protein produced; luciferase per cell, z-score: higher = more reporter output per viable cell; viable cells, % of control: higher = more viable cells. Active means: 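Active when the median/MAD z-score for overall luciferase is greater than 3; a gene was taken forward for validation with new siRNAs if at least two of its three siRNAs passed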. Calls: active = raised luciferase; inactive = no rise.
The whole screen tested about 59,000 reagents; below is a random part of them. In the full data, about 1,510 (2.6%) are marked active. 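Calls use total luciferase alone and ignore viability, so some active siRNAs may act by altering cell number.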 A number with no mark means an inactive call. Reagents against one gene are numbered here.

| target | siRNA no. | total luciferase, z-score | total luciferase, % of control | luciferase per cell, z-score | viable cells, % of control |
| --- | --- | --- | --- | --- | --- |
| NIPSNAP3B (GeneID 55335) | 1 | 0.085 | 83.6 | -0.184 | 98 |
| NIPSNAP3B (GeneID 55335) | 2 | 0.838 | 98.6 | 0.595 | 94.2 |
| NIPSNAP3B (GeneID 55335) | 3 | 2.42 | 130 | 1.58 | 95.9 |
| CLDN3 (GeneID 1365) | 1 | -0.758 | 66.8 | -0.535 | 85.9 |
| CLDN3 (GeneID 1365) | 2 | 1.48 | 111 | 0.21 | 118 |
| CLDN3 (GeneID 1365) | 3 | 0.535 | 92.5 | 0.422 | 92.5 |
| AGXT (GeneID 189) | 1 | 0.222 | 86.3 | -0.45 | 109 |
| AGXT (GeneID 189) | 2 | -0.232 | 77.3 | -0.0413 | 87.3 |
| AGXT (GeneID 189) | 3 | -0.188 | 78.1 | -0.524 | 100 |

The list goes on, starting with the last 2 of the part before.
| target | siRNA no. | total luciferase, z-score | total luciferase, % of control | luciferase per cell, z-score | viable cells, % of control |
| --- | --- | --- | --- | --- | --- |
| AGXT (GeneID 189) | 2 | -0.232 | 77.3 | -0.0413 | 87.3 |
| AGXT (GeneID 189) | 3 | -0.188 | 78.1 | -0.524 | 100 |
| CES5A (GeneID 221223) | 1 | 0.749 | 96.8 | 0.235 | 102 |
| CES5A (GeneID 221223) | 2 | 6.06 (active) | 202 | 3.95 | 79.9 |
| CES5A (GeneID 221223) | 3 | 0.832 | 98.4 | 0.28 | 102 |
| LINC00703 (GeneID 100507059) | 1 | -0.87 | 64.6 | -0.338 | 78.9 |
| LINC00703 (GeneID 100507059) | 2 | -0.283 | 76.3 | -0.219 | 90.3 |
| LINC00703 (GeneID 100507059) | 3 | -1.21 | 57.7 | -1.12 | 86.7 |
| GDF5 (GeneID 8200) | 1 | -0.644 | 69.1 | -1.26 | 107 |
| GDF5 (GeneID 8200) | 2 | 0.0273 | 82.4 | -0.546 | 106 |
| GDF5 (GeneID 8200) | 3 | 0.262 | 87.1 | -0.188 | 102 |
| CAPN8 (GeneID 388743) | 1 | -1.6 | 50 | -1.7 | 87.4 |
| CAPN8 (GeneID 388743) | 2 | 0.534 | 92.5 | 0.187 | 98.4 |
| CAPN8 (GeneID 388743) | 3 | -0.819 | 65.6 | -0.81 | 90.7 |
| CAPN8 (GeneID 388743) | 4 | 2.32 | 128 | 1.85 | 87.9 |
| CAPN8 (GeneID 388743) | 5 | -1.13 | 59.4 | -1.58 | 101 |
| CAPN8 (GeneID 388743) | 6 | -0.487 | 72.2 | -0.457 | 91 |
